Data on one substance can be found in PMC9124206.

Chains of the proteins cited; added tags and fusions are not shown.
UniProt Q15910: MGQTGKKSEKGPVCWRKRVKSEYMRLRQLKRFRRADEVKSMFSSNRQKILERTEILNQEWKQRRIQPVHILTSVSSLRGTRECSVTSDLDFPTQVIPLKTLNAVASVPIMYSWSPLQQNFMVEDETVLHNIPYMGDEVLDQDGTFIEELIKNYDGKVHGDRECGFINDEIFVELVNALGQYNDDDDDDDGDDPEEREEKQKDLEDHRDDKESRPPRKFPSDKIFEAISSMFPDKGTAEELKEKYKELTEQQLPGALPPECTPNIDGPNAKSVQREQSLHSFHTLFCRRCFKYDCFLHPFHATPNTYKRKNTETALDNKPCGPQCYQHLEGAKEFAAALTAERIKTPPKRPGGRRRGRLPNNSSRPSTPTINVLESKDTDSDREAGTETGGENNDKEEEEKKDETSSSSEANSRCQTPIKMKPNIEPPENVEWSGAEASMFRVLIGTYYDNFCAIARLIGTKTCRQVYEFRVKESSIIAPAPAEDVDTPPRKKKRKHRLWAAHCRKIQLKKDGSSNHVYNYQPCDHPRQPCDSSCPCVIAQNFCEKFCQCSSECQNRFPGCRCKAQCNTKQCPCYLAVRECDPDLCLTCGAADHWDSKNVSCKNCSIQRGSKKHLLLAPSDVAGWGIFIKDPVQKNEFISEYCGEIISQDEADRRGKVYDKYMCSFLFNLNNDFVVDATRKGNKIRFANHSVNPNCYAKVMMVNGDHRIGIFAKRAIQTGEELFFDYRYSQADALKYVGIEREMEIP
UniProt Q86YI8: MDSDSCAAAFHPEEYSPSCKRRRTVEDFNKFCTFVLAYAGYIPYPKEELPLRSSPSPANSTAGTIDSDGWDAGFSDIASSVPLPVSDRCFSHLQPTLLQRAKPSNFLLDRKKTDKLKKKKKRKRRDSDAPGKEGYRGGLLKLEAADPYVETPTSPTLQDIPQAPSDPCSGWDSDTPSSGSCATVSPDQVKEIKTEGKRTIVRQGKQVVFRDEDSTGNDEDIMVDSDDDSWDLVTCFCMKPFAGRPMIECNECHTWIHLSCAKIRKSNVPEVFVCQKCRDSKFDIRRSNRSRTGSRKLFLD

For the assay, the target named is EZH2, a core subunit of the polycomb repressive complex 2 (PRC2) (human (endogenous in Panc-1)) (UniProt Q15910). Nature of the assay: co-IP; endogenous co-immunoprecipitation from Panc1 nuclear extract; anti-PHF13 IP or anti-EZH2 IP, anti-IgG IP as control; western blot.

These are yes or no findings as the source states them, for the method shown. Binding seen in cells or lysates may run through a third protein. Some entries that bind do so weakly or less than the wild type.

“PHD finger protein 13 (PHF13) (from UniProt Q86YI8 1-300)”: the binding entry is listed as “binds”.
